Results from PubChem BioAssay AID186 (DTP/NCI, 2004).
Shown are survivors of the treated group in tumour-free mice. Counts of survivors are from the toxicity check (mostly the fifth day) where no day follows; animals may have died later. Schedule codes are those of the source, taken here to give the interval after Q, in days (D) or hours (H), and the number of doses after X. Some doses were run more than once; the values are given in rising order.

Test system: B6D2F1 mice, nontumored toxicity test, survival
Experiment: NCI In Vivo Anticancer Drug Screen. Data for tumor model Nontumored Animals (Toxicity Test) in B6D2F1 (BDF1) mice
[1] = dose: 12.5 mg/kg/injection, schedule: Q03HX008 (ip), vehicle: saline
[2] = dose: 12.5 mg/kg/injection, schedule: Q03HX016 (ip), vehicle: saline
[3] = dose: 12.5 mg/kg/injection, schedule: Q03HX024 (ip), vehicle: saline
[4] = dose: 25.0 mg/kg/injection, schedule: Q03HX008 (ip), vehicle: saline
[5] = dose: 25.0 mg/kg/injection, schedule: Q03HX016 (ip), vehicle: saline
[6] = dose: 25.0 mg/kg/injection, schedule: Q03HX024 (ip), vehicle: saline
[7] = dose: 50.0 mg/kg/injection, schedule: Q01DX009 (ip), vehicle: saline
[8] = dose: 50.0 mg/kg/injection, schedule: Q03HX008 (ip), vehicle: saline
[9] = dose: 50.0 mg/kg/injection, schedule: Q03HX016 (ip), vehicle: saline
[10] = dose: 50.0 mg/kg/injection, schedule: Q03HX024 (ip), vehicle: saline
[11] = dose: 100.0 mg/kg/injection, schedule: Q01DX009 (ip), vehicle: saline
[12] = dose: 100.0 mg/kg/injection, schedule: Q03HX008 (ip), vehicle: saline
[13] = dose: 100.0 mg/kg/injection, schedule: Q03HX016 (ip), vehicle: saline
[14] = dose: 100.0 mg/kg/injection, schedule: Q03HX024 (ip), vehicle: saline
[15] = dose: 100.0 mg/kg/injection, schedule: Q04DX003 (ip), vehicle: saline
[16] = dose: 200.0 mg/kg/injection, schedule: Q01DX001 (ip), vehicle: saline
[17] = dose: 200.0 mg/kg/injection, schedule: Q01DX009 (ip), vehicle: saline
[18] = dose: 200.0 mg/kg/injection, schedule: Q04DX003 (ip), vehicle: saline
[19] = dose: 200.0 mg/kg/injection, schedule: Q08DX002 (ip), vehicle: saline
[20] = dose: 400.0 mg/kg/injection, schedule: Q01DX001 (ip), vehicle: saline
[21] = dose: 400.0 mg/kg/injection, schedule: Q01DX009 (ip), vehicle: saline
[22] = dose: 400.0 mg/kg/injection, schedule: Q04DX003 (ip), vehicle: saline
[23] = dose: 400.0 mg/kg/injection, schedule: Q08DX002 (ip), vehicle: saline
[24] = dose: 800.0 mg/kg/injection, schedule: Q01DX001 (ip), vehicle: saline
[25] = dose: 800.0 mg/kg/injection, schedule: Q04DX003 (ip), vehicle: saline
[26] = dose: 800.0 mg/kg/injection, schedule: Q08DX002 (ip), vehicle: saline

Row | Compound | survivor count [1] | survivor count [2] | survivor count [3] | survivor count [4] | survivor count [5] | survivor count [6] | survivor count [7] | survivor count [8] | survivor count [9] | survivor count [10] | survivor count [11] | survivor count [12] | survivor count [13] | survivor count [14] | survivor count [15] | survivor count [16] | survivor count [17] | survivor count [18] | survivor count [19] | survivor count [20] | further results
1 | OCC1OC(n2cnc3c(=S)nc[nH]c32)C(O)C1O (stereo not drawn) | – | – | – | – | – | – | – | – | – | – | – | – | – | – | – | – | – | – | – | – | survivor count (dose: 75.0 mg/kg/injection, schedule: Q03HX024 (ip), vehicle: saline): 7 of 8 and 8 of 8; survivor count (dose: 150.0 mg/kg/injection, schedule: Q03HX024 (ip), vehicle: saline): 8 of 8; survivor count (dose: 300.0 mg/kg/injection, schedule: Q03HX024 (ip), vehicle: saline): 7 of 8 and 8 of 8
2 | O=c1[nH]c(=O)n(C2CC(O)C(CO)O2)cc1F (stereo not drawn) | 5 of 6 | 6 of 6 | 6 of 6 | 6 of 6 | 6 of 6 | 6 of 6 | 5 of 6 | 6 of 6 | 6 of 6 | 6 of 6 | 6 of 6 | 6 of 6 | 6 of 6 | 6 of 6 | 6 of 6 | 6 of 6 | 6 of 6 | 6 of 6 | 6 of 6 | 6 of 6 | survivor count (dose: 3.12 mg/kg/injection, schedule: Q03HX024 (ip), vehicle: saline): 6 of 6; survivor count (dose: 6.25 mg/kg/injection, schedule: Q03HX008 (ip), vehicle: saline): 6 of 6; survivor count (dose: 6.25 mg/kg/injection, schedule: Q03HX016 (ip), vehicle: saline): 6 of 6; survivor count (dose: 6.25 mg/kg/injection, schedule: Q03HX024 (ip), vehicle: saline): 6 of 6; survivor count (dose: 25.0 mg/kg/injection, schedule: Q01DX009 (ip), vehicle: saline): 6 of 6; survivor count (dose: 160.0 mg/kg/injection, schedule: Q01DX001 (ip), vehicle: saline): 6 of 6; survivor count (dose: 200.0 mg/kg/injection, schedule: Q03HX008 (ip), vehicle: saline): 6 of 6; survivor count (dose: 200.0 mg/kg/injection, schedule: Q03HX016 (ip), vehicle: saline): 6 of 6; survivor count [21]: 6 of 6; survivor count [22]: 6 of 6; survivor count [23]: 6 of 6; survivor count [24]: 6 of 6; survivor count [25]: 6 of 6; survivor count [26]: 6 of 6; survivor count (dose: 1600.0 mg/kg/injection, schedule: Q04DX003 (ip), vehicle: saline): 6 of 6; survivor count (dose: 1600.0 mg/kg/injection, schedule: Q08DX002 (ip), vehicle: saline): 6 of 6
3 | O=c1[nH]cc(N(CCCl)CCCl)c(=O)[nH]1 | – | – | – | – | – | – | – | – | – | – | – | – | – | – | – | – | – | – | – | – | survivor count (dose: 2.4 mg/kg/injection, schedule: Q01DX001 (ip), vehicle: gum acacia): 10 of 10; survivor count (dose: 3.6 mg/kg/injection, schedule: Q01DX001 (ip), vehicle: gum acacia): 10 of 10; survivor count (dose: 5.4 mg/kg/injection, schedule: Q01DX001 (ip), vehicle: gum acacia): 10 of 10
4 | COC(OC(CO)C(O)S(=O)(=O)O)C(O)S(=O)(=O)O (stereo not drawn) | 8 of 8 | 8 of 8 | 8 of 8 | 8 of 8 | 8 of 8 | 8 of 8 | 8 of 8 | 8 of 8 | 8 of 8 | 8 of 8 | 8 of 8 | 7 of 8 | 8 of 8 | 7 of 8 | 8 of 8 | 8 of 8 | 8 of 8 | 8 of 8 | 8 of 8 | 8 of 8 | survivor count (dose: 50.0 mg/kg/injection, schedule: Q01DX009 (sc), vehicle: saline): 8 of 8; survivor count (dose: 100.0 mg/kg/injection, schedule: Q01DX001 (ip), vehicle: saline): 8 of 8; survivor count (dose: 100.0 mg/kg/injection, schedule: Q01DX009 (oral), vehicle: saline): 8 of 8; survivor count (dose: 100.0 mg/kg/injection, schedule: Q01DX009 (sc), vehicle: saline): 8 of 8; survivor count (dose: 100.0 mg/kg/injection, schedule: Q08DX002 (ip), vehicle: saline): 8 of 8; survivor count (dose: 200.0 mg/kg/injection, schedule: Q01DX009 (oral), vehicle: saline): 8 of 8; survivor count (dose: 200.0 mg/kg/injection, schedule: Q01DX009 (sc), vehicle: saline): 8 of 8; survivor count [21]: 7 of 8; survivor count (dose: 400.0 mg/kg/injection, schedule: Q01DX009 (oral), vehicle: saline): 8 of 8; survivor count (dose: 400.0 mg/kg/injection, schedule: Q01DX009 (sc), vehicle: saline): 8 of 8; survivor count [22]: 8 of 8; survivor count [23]: 8 of 8; survivor count [24]: 8 of 8; survivor count (dose: 800.0 mg/kg/injection, schedule: Q01DX009 (oral), vehicle: saline): 7 of 8; survivor count [25]: 8 of 8; survivor count [26]: 8 of 8
